For five molecules, binding results are on record in PMC7998727.

Chains of the proteins cited; added tags and fusions are not shown. Lines headed by an entry give the natural chain unless they say otherwise; changes in a name come on top.
UniProt O75792: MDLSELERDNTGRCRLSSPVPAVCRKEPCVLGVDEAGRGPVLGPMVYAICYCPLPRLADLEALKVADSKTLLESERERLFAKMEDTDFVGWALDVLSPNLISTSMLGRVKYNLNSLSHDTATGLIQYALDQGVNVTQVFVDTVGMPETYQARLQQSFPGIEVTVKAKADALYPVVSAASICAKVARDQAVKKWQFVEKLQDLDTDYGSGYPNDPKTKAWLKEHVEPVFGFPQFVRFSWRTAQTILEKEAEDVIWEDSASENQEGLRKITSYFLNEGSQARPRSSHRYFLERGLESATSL
UniProt O95831: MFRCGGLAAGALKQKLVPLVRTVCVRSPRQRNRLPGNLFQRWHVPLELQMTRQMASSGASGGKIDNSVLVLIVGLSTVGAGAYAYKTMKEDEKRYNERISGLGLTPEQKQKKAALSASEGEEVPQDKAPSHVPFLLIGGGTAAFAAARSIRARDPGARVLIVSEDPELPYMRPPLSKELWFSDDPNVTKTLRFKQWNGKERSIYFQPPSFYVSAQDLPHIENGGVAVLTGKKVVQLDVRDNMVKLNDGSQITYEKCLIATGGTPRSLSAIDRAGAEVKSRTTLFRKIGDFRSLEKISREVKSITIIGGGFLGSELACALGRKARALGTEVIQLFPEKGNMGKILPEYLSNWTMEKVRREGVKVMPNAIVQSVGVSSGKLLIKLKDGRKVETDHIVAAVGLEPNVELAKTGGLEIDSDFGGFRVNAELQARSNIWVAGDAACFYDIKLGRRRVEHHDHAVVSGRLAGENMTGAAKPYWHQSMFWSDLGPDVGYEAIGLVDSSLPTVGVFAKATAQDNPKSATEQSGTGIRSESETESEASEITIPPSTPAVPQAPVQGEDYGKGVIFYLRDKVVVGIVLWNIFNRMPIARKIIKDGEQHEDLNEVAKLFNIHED
UniProt P50990: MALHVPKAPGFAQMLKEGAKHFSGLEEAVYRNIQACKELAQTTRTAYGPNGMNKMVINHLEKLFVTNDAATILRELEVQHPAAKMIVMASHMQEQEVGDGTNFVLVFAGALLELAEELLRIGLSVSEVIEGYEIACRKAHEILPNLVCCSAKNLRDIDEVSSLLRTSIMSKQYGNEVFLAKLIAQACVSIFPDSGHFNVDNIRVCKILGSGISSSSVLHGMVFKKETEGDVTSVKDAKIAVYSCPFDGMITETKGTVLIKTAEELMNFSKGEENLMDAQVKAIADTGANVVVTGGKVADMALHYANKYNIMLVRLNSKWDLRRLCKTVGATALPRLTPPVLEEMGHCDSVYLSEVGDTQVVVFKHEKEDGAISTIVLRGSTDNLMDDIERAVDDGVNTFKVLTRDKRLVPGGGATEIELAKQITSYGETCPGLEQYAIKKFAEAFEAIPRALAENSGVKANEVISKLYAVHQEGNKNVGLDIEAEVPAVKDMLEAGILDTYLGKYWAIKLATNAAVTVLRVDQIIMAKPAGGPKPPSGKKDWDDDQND

These are yes or no findings as the source states them, for the method shown. Binding seen in cells or lysates may run through a third protein. A yes stands for co-enrichment or nearness to the bait. Other partners may have been found.

This test has as its target eGFP-RNASEH2A (human) (UniProt O75792). Nature of the test: affinity purification with mass spectrometry; 1 mg whole cell lysate (NP-40 lysis buffer) of HEK293 cells transfected with eGFP-RNASEH2A or eGFP alone (control); GFP-Trap Magnetic Agarose beads, 4 °C, 1 h; washes in 50 mM Tris-HCl pH 7.5, 150 mM NaCl with and without 0.25% NP-40; eluate run on a gel, nano-LC-MS/MS; two sets of immunoprecipitations; hits by log fold change > 1.5 and FDR adjusted p < 0.05 against eGFP alone.

Consider “DnaJ homolog subfamily A member 1 (from UniProt P31689 1-397)”, for which the binding entry is on record as “binds”. To “Apoptosis-inducing factor 1, mitochondrial (from UniProt O95831)” belongs “binds”; to “T-complex protein 1 subunit theta (from UniProt P50990 1-548)”, “binds”.

B1: Ribonuclease H2 subunit B (protein, UniProt Q5TBB1 1-312)
chain: MAAGVDCGDGVGARQHVFLVSEYLKDASKKMKNGLMFVKLVNPCSGEGAIYLFNMCLQQLFEVKVFKEKHHSWFINQSVQSGGLLHFATPVDPLFLLLHYLIKADKEGKFQPLDQVVVDNVFPNCILLLKLPGLEKLLHHVTEEKGNPEIDNKKYYKYSKEKTLKWLEKKVNQTVAALKTNNVNVSSRVQSTAFFSGDQASTDKEEDYIRYAHGLISDYIPKELSDDLSKYLKLPEPSASLPNPPSKKIKLSDEPVEAKEDYTKFNTKDLKTEKKNSKMTAAQKALAKVDKSGMKSIDTFFGVKNKKKIGKV
Take B1: the binding entry is recorded as “binds”.

B2: Ribonuclease H2 subunit C (protein, UniProt Q8TDP1 1-164)
chain: MESGDEAAIERHRVHLRSATLRDAVPATLHLLPCEVAVDGPAPVGRFFTPAIRQGPEGLEVSFRGRCLRGEEVAVPPGLVGYVMVTEEKKVSMGKPDPLRDSGTDDQEEEPLERDFDRFIGATANFSRFTLWGLETIPGPDAKVRGALTWPSLAAAIHAQVPED
As for B2, the binding entry is recorded as “binds”.
